Test results published in article PMC9583544.
No constants are given. Whether binding was seen depends on the method and setting. Binding seen in cells or lysates may run through a third protein. Here binding means that the protein was enriched with, or labelled near, the bait; the list need not be complete.

Molecular target: interferon stimulated gene (ISG) 15 (human (endogenous in IPSC-derived neurons)) (UniProt P05161)
Assay: affinity purification with mass spectrometry; lysates of human IPSC-derived neurons (non-targeted control against ISG15 knockout) treated with 100 ng/mL IFNγ for 24 h; NDG lysis buffer (1% Nonidet P-40, 0.5% deoxycholate, 10% glycerol, 20 mM Tris, 137 mM NaCl, pH 8.0); immunoprecipitated with biotinylated anti-ISG15 (clone F9) on streptavidin magnetic nanoparticles; eluted in 5% glacial acetic acid; LC-MS; hits >5 counts and >5-fold enriched over ISG15 KO precipitates

- binding: binds
B1: HYOU1 (protein, UniProt Q9Y4L1 33-999)
chain: LAVMSVDLGSESMKVAIVKPGVPMEIVLNKESRRKTPVIVTLKENERFFGDSAASMAIKNPKATLRYFQHLLGKQADNPHVALYQARFPEHELTFDPQRQTVHFQISSQLQFSPEEVLGMVLNYSRSLAEDFAEQPIKDAVITVPVFFNQAERRAVLQAARMAGLKVLQLINDNTATALSYGVFRRKDINTTAQNIMFYDMGSGSTVCTIVTYQMVKTKEAGMQPQLQIRGVGFDRTLGGLEMELRLRERLAGLFNEQRKGQRAKDVRENPRAMAKLLREANRLKTVLSANADHMAQIEGLMDDVDFKAKVTRVEFEELCADLFERVPGPVQQALQSAEMSLDEIEQVILVGGATRVPRVQEVLLKAVGKEELGKNINADEAAAMGAVYQAAALSKAFKVKPFVVRDAVVYPILVEFTREVEEEPGIHSLKHNKRVLFSRMGPYPQRKVITFNRYSHDFNFHINYGDLGFLGPEDLRVFGSQNLTTVKLKGVGDSFKKYPDYESKGIKAHFNLDESGVLSLDRVESVFETLVEDSAEEESTLTKLGNTISSLFGGGTTPDAKENGTDTVQEEEESPAEGSKDEPGEQVELKEEAEAPVEDGSQPPPPEPKGDATPEGEKATEKENGDKSEAQKPSEKAEAGPEGVAPAPEGEKKQKPARKRRMVEEIGVELVVLDLPDLPEDKLAQSVQKLQDLTLRDLEKQEREKAANSLEAFIFETQDKLYQPEYQEVSTEEQREEISGKLSAASTWLEDEGVGATTVMLKEKLAELRKLCQGLFFRVEERKKWPERLSALDNLLNHSSMFLKGARLIPEMDQIFTEVEMTTLEKVINETWAWKNATLAEQAKLPATEKPVLLSKDIEAKMMALDREVQYLLNKAKFTKPRPRPKDKNGTRAEPPLNASASDQGEKVIPPAGQTEDAEPISEPEKVETGSEPGDTEPLELGGPGAEPEQKEQSTGQKRPLKNDEL
